# Test results: the supplement of paper PMC10338343
# ± gives the standard deviation. The list shows a part of the results, in another mix than the full data. The uncertainty is large for many entries. This is one part of the list.
# Test system: MILI (PIWIL2) piRISC loaded with L1MC piRNA (26 nt);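 note: 1 nM active piRISC with 0.1 nM target library at 33 °C single turnover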
# Experiment: pre-steady-state target cleavage rate (min^-1); higher = faster piRNA-guided slicing of the target
# Details: guide: L1MC piRNA 5'p-UAACUAAAUACUAUGCAAGCUGUAGG; auxiliary factor: 500 nM mouse GTSF1
# Outline: (§1)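 In HEPES–potassium acetate buffer at 33 °C, […] transcribed, DNA-blocked target RNA library was mixed with 1 nM active affinity-purified piRISC carrying one synthetic guide, with or without 500 nM GTSF1 partner protein, for 0–8 or 0–960 min. Uncleaved targets were sequenced and normalised to depth and to weakly complementary targets; three trials were pooled and k3 was capped at 0.0001 min^-1. The pre-steady-state cleavage rate followed from a burst-and-steady-state fit.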
row,Sequence,pre-steady-state target cleavage rate
1,UCCUCCUACGCUUGCAUAGUAUUUAGUUA,0.301 ± 0.013
2,UCCUCUACAGCUUGCAUAGUAUUUAGUUA,0.31 ± 0.013
3,UCCUCCUACGGCUUGCAUAGUAUUUAGUUA,0.298 ± 0.018
4,UCCUGGAUGUCGAACCAUAGUAUUUAGUCA,0.000728 ± 0.0086

# Same assay, conditions: guide: L1MC piRNA 5'p-UAACUAAAUACUAUGCAAGCUGUAGG; auxiliary factor: none (no GTSF1)
row,Sequence,pre-steady-state target cleavage rate
1,UCCUGGAACAGCUUGCAUUGAAUUUAGUUA,0.00224 ± 0.0032
2,UCCUCCUACAGCUUGCAUAGUAUUUACAUA,0.00261 ± 0.0028
3,UCCUGGAUGUGCUUGCAUACUAUUUAGUAA,0.000905 ± 0.0059
4,UCCUGGAUGUCGAACGUUUGUAUAUAGUUA,0.000255 ± 0.015
5,UCCUGGAUGUGCUUGCAUAGUAAUUAGUAA,0.0028 ± 0.0034
6,UCCUGGAUGUCGAACCAUAGGUAUUUAGUUA,0.000118 ± 0.021
7,UCCUGGUUGUGCUUGCAUAGUAUUUAGAAA,0.00285 ± 0.0031
8,UCCUGGAACAGCUUGCAUAGUAUUGAGUUA,0.00235 ± 0.0026
9,UCCUGCUACAGCUUGCAUAGUCUUUAGUUA,0.00239 ± 0.003
10,UCCUCCUACUGCUUGCAUAGUAUUUAGAUA,0.00127 ± 0.004
11,UCCUCCUACAGCUUGCAUAGUAUUUUGAUA,0.00203 ± 0.0032
12,UCCUGGAACACCUUGCAUAGAAUUUAGUUA,0.00189 ± 0.0036
13,UCCUGGAUGUCGAACCAUAGUAUAUUAGUUA,0.000318 ± 0.018
14,UCCUGGUACAGCUAGCAUAGUAUUUAGAUA,0.0026 ± 0.0033
15,UCCUGGAUGUCGAACGUAAGUAUUUACGUUA,0.000289 ± 0.021
16,UCCUGGAACAGCUUGCAUAGAAAUUAGUUA,0.00187 ± 0.0028
17,UCCUGGAUGUCGAACCUUAGUAAUUAGUUA,0.000314 ± 0.01
18,UCCUGCUACAGCUUGCAUACUUUUUAGUUA,0.00197 ± 0.0024

row,Sequence,pre-steady-state target cleavage rate
1,UCCUGGAACAGCUAGCAUACUAUUUAGUUA,0.00249 ± 0.0026
2,UCCUGCUACAGCAUGCAUAGAAUUUAGUUA,0.00215 ± 0.0051
3,UCCUGGAACAGCUUGCAUAGUAUUAAGAAA,0.000897 ± 0.0067
4,UCCUGGAUCAGCUUGCAUACUAUUUAGUAA,0.00144 ± 0.0052
5,UCCUGCUACAGCUUGCAUAGUAAUUACUUA,0.00127 ± 0.006
6,UCCUGGAUGUCGAACGUAUCUAUUUGUUA,0.000138 ± 0.022
7,UCCUGGAUCAGCUUGCAUAGUAUUAAGAAA,0.00109 ± 0.0051
8,UCCUCCUUCAGCUUGCAUAGUAUUUACUUA,0.00218 ± 0.0025
9,UCCUGGAUGAGCUUGCAUACUAUUUUGUUA,0.000814 ± 0.0076
10,UCCUGCUACAGCAUGCAUAGUAUUUACUUA,0.00226 ± 0.0051
11,UCCUGCUACAGCUUGCAUAGUAAUUAGAUA,0.00103 ± 0.0052
12,UCCUGGAUCACCUUGCAUAGUAUUUAGAUA,0.00256 ± 0.0028
13,UCCUGCUACAGCUUGCAUAGUAUUAAGUAA,0.00125 ± 0.0055
14,UCCUCGAUCAGCUUGCAUAGUAUUUACAAA,0.00131 ± 0.0036
15,UCCUGGAACAGCUUGCAUAGUAAAAUCAAA,0.00141 ± 0.0044
16,UCCUGCUUGUGCUUGCAUAGUAUUUACAAA,0.00111 ± 0.0048
17,UCCUGGAUGUCCUUGCAUAGUAUUUAGUCA,0.0025 ± 0.0034
18,UCCUGGAUGUCGAACGUAUCUAAUAAGUUA,0.000225 ± 0.015

# Test system: EfPiwi piRISC loaded with L1MC piRNA (26 nt)
# Experiment: pre-steady-state target cleavage rate (min^-1); guide: L1MC piRNA 5'p-UAACUAAAUACUAUGCAAGCUGUAGG; MIWI and MILI are mouse PIWI proteins and EfPiwi is from a freshwater sponge; tags in brackets are library labels; higher = faster piRNA-guided slicing of the target
# Details: auxiliary factor: 500 nM Ephydatia muelleri Gtsf1
# Outline: as §1
row,Sequence,pre-steady-state target cleavage rate
1,UCCUGGAACAGCUUGCAUUGAAUUUAGUUA,0.000418 ± 0.0081
2,UCCUCCUACAGCUUGCAUAGUAUUUACAUA,0.00441 ± 0.0028
3,UCCUGGAUGUGCUUGCAUACUAUUUAGUAA,0.00108 ± 0.0066
4,UCCUGGAUGUGCUUGCAUAGUAAUUAGUAA,0.0012 ± 0.0051
5,UCCUGGUUGUGCUUGCAUAGUAUUUAGAAA,0.00415 ± 0.0022
6,UCCUGGAACAGCUUGCAUAGUAUUGAGUUA,0.00624 ± 0.0022
7,UCCUCCUACUGCUUGCAUAGUAUUUAGAUA,0.0056 ± 0.0026
8,UCCUCCUACAGCUUGCAUAGUAUUUUGAUA,0.0044 ± 0.0029
9,UCCUGGAACACCUUGCAUAGAAUUUAGUUA,0.000777 ± 0.0062
10,UCCUGGAUGUCGAACCAUAGUAUAUUAGUUA,0.000293 ± 0.023
11,UCCUGGUACAGCUAGCAUAGUAUUUAGAUA,0.00618 ± 0.0029
12,UCCUCCUACGCUUGCAUAGUAUUUAGUUA,0.0821 ± 0.021
13,UCCUGGAUGUCGAACGUAAGUAUUUACGUUA,0.000106 ± 0.025
14,UCCUGGAACAGCUUGCAUAGAAAUUAGUUA,0.00226 ± 0.0033
15,UCCUGGAUGUCGAACCUUAGUAAUUAGUUA,0.000389 ± 0.01
16,UCCUGCUACAGCUUGCAUACUUUUUAGUUA,0.00156 ± 0.0028
17,UCCUGGAACAGCUAGCAUACUAUUUAGUUA,0.0045 ± 0.0019

row,Sequence,pre-steady-state target cleavage rate
1,UCCUCUACAGCUUGCAUAGUAUUUAGUUA,0.183 ± 0.045
2,UCCUGGAACAGCUUGCAUAGUAUUAAGAAA,0.00313 ± 0.0019
3,UCCUGGAUCAGCUUGCAUACUAUUUAGUAA,0.00398 ± 0.0023
4,UCCUCCUACGGCUUGCAUAGUAUUUAGUUA,0.0667 ± 0.017
5,UCCUGGAUGUCGAACCAUAGUAUUUAGUCA,< 0.0001
6,UCCUGCUACAGCUUGCAUAGUAAUUACUUA,0.0026 ± 0.0026
7,UCCUGGAUCAGCUUGCAUAGUAUUAAGAAA,0.00459 ± 0.0022
8,UCCUCCUUCAGCUUGCAUAGUAUUUACUUA,0.00514 ± 0.0032
9,UCCUGGAUGAGCUUGCAUACUAUUUUGUUA,0.00137 ± 0.0039
10,UCCUGCUACAGCAUGCAUAGUAUUUACUUA,0.0037 ± 0.0024
11,UCCUGCUACAGCUUGCAUAGUAAUUAGAUA,0.00345 ± 0.0018
12,UCCUGGAUCACCUUGCAUAGUAUUUAGAUA,0.00551 ± 0.005
13,UCCUCGAUCAGCUUGCAUAGUAUUUACAAA,0.00554 ± 0.003
14,UCCUGGAACAGCUUGCAUAGUAAAAUCAAA,0.00241 ± 0.0036
15,UCCUGCUUGUGCUUGCAUAGUAUUUACAAA,0.00208 ± 0.003
16,UCCUGGAUGUCCUUGCAUAGUAUUUAGUCA,0.00415 ± 0.004
17,UCCUGGAUGUCGAACGUAUCUAAUAAGUUA,0.000145 ± 0.031
